From patent publication US6562785B1, “Method for overcoming bacterial antibiotic resistance” (priority 1999, dated 2003)
At least one structure is not confirmed: it was looked up by name or label, or the drawing left a doubt.

Experiments:
[1] = tested on: Staphylococcus aureus (ATCC 29213) and Micrococcus luteus; assay: Membrane potential by ratio of red to green DiOC2(3) fluorescence, flow cytometry; assay type: cell-based; details: dependence on concentration and time
Protocol: (§1) Flow cytometric studies were performed using a laboratory-built dual laser instrument optimized for bacterial analysis. DiOC2(3) was excited at 488 nm by a beam from an argon ion laser; its green fluorescence was detected through a 530 nm, 20 nm bandwidth bandpass filter, and its red fluorescence was detected through a 610 nm, 19 nm bandpass filter. TO-PRO-3™ was excited at 633 nm by a beam from a helium-neon laser, and its fluorescence was detected through a 695 nm long pass filter. Light scattered at small angles to the 488 nm beam (forward scatter) was used as the trigger signal. Sheath flow rate was 10 ml/min; sample analysis rate was kept below 1,000 events/second. The signal pulse amplitudes were captured by high-precision peak detectors, and digitized using an Analogic HSDAS-16 16-bit data acquisition system in a Pentium-class personal computer. Software was used to perform logarithmic conversion on all of the parameters, which were represented on a 256-channel, 4-decade logarithmic scale.
(§2) Staphylococcus aureus (ATCC 29213) and Micrococcus luteus were grown overnight in trypticase soy broth. […]
(§3) Membrane potential was determined as a ratio of red to green DiOC2(3) fluorescence, providing a cell size-independent measure of MP. […]

[2] = tested on: Staphylococcus aureus (ATCC 29213) and Micrococcus luteus; assay: Membrane permeability by TO-PRO-3 staining, flow cytometry; assay type: cell-based; details: concentrations below 1 μg/ml
Protocol: as §1, §2, §3

## CN(C)[C@@H]1C(O)=C(C(N)=O)C(=O)[C@@]2(O)C(O)=C3C(=O)c4c(O)cccc4[C@@](C)(O)[C@H]3C[C@@H]12 [Tetracycline, tetracycline]
[1]
  depolarization: concentration- and time-dependent depolarizations
[2]
  permeability changes: did not cause any permeability changes
